Measurements as given in patent US9096624B2 (OSI Pharmaceuticals, LLC, priority 2009, dated 2015).
Some of these results come from one statement about several compounds together.

Sequences of proteins named here, by UniProt entry; tags and fusion partners are left off.
UniProt Q05397, whole entry: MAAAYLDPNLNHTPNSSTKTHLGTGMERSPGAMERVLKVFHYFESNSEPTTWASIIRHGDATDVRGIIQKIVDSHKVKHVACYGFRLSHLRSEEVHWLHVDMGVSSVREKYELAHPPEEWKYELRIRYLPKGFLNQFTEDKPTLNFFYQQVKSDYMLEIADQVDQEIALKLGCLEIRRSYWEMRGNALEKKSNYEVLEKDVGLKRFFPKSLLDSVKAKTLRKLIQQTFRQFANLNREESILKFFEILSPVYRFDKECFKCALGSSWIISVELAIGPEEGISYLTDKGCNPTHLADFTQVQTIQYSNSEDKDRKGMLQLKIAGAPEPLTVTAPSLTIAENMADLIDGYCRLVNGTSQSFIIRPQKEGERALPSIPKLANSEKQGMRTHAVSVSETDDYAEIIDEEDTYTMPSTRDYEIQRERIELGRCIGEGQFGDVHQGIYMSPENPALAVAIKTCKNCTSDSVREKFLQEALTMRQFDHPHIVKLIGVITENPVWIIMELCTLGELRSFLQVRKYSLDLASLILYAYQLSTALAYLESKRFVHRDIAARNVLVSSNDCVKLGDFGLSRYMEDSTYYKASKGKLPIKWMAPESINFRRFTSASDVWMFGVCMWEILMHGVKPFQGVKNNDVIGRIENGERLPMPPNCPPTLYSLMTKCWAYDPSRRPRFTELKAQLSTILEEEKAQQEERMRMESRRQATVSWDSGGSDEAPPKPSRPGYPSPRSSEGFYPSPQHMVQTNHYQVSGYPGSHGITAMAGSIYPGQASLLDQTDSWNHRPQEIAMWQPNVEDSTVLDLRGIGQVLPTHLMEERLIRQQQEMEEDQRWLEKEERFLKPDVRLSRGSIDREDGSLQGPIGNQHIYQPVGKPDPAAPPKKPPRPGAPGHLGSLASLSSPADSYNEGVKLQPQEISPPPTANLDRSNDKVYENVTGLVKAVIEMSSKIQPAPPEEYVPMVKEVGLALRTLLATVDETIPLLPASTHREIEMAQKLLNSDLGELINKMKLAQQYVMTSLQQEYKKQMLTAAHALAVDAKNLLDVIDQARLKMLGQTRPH

Target: FAK (Homo sapiens, UniProt Q05397)
Settings: read-out: Mean FAK Biochem Omnia IC50 (50 uM ATP), Omnia Y Peptide 3 substrate

SMILES	IC50
COCCOP(=O)(Cc1ccc(Nc2nc(Nc3cccc4c3C(=O)N(C)C4)ncc2C(F)(F)F)c(OC)c1)OCCOC [Compound 220, Bis(2-methoxyethyl) [3-methoxy-4-({2-[(2-methyl-3-oxo-2,3-dihydro-1H-isoindol-4-yl)amino]-5-(trifluoromethyl)pyrimidin-4-yl}amino)benzyl]phosphonate]	< 1 µM
COCCOP(=O)(Cc1ccc(Nc2nc(Nc3ccc([C@H]4CC[C@H](O)CC4)c4c3C(=O)N(C)C4)ncc2C(F)(F)F)c(OC)c1)OCCOC [Compound 218, Bis(2-methoxyethyl) (4-{[2-{[7-(trans-4-hydroxycyclohexyl)-2-methyl-3-oxo-2,3-dihydro-1H-isoindol-4-yl]amino}-5-(trifluoromethyl)pyrimidin-4-yl]amino}-3-methoxybenzyl)phosphonate]	< 1 µM
